The results in this text go back to PMC7047322.

Sequences of proteins named here, by UniProt entry; tags and fusion partners are left off.
UniProt P26447: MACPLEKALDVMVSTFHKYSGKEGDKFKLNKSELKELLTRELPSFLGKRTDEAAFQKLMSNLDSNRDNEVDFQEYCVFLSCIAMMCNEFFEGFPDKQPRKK
UniProt P19474: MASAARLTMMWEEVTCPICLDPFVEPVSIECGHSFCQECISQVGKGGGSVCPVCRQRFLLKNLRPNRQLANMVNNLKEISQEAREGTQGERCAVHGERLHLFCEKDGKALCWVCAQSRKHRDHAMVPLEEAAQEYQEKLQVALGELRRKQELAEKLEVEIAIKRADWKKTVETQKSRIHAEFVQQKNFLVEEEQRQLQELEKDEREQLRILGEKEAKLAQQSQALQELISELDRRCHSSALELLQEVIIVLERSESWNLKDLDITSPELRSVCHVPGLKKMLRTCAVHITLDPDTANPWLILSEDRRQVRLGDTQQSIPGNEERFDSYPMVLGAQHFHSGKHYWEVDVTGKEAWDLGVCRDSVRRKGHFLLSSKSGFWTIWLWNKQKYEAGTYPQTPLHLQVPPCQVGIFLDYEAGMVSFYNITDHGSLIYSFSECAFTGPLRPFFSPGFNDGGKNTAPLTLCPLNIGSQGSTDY

No constants are given. Whether binding was seen depends on the method and setting. In cells and extracts the contact can be indirect. A yes stands for co-enrichment or nearness to the bait. Other partners may have been found.

In the assay the target is S100A4 (human (endogenous in LoVo and HCT116)) (UniProt P26447). In words: affinity purification with mass spectrometry; endogenous S100A4 precipitated from lysates (IP lysis buffer) of PGCCs with daughter cells with rabbit anti-S100A4 monoclonal antibody (1:50, 4°C overnight) and protein A/G agarose beads; normal rabbit IgG as negative control; co-precipitates analysed by MS/MS (Q Exactive plus).

With “tripartite motif-containing 21 (TRIM21) (from UniProt P19474 1-475)”, the binding entry is “binds”.
